PubChem BioAssay AID1224828, NIAID – 2016
The deposit covers about 17,000 reagents; shown is a random part of them. In the full data, 762 (4.5%) got an active call. 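Active calls include both raised and lowered p65 entry, mostly lowered; wells with fewer than 50 cells lack a z-score.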 The raw values are shown without normalisation. A number with no mark means an inactive call. No sequences are given here.

Aim: 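Knock-downs that increase or decrease LPS-induced p65 nuclear translocation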 (primary screen)
System: mouse RAW264.7 G9 macrophage reporter cells (GFP-p65, Tnf promoter-mCherry)
Knock-down reagent: siRNA pool against mouse genes, 100 nM
Duration: 2 days siRNA transfection, then 40 min LPS before fixation
Challenge: LPS (Salmonella minnesota R595) at 10 ng/ml
Detection: 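Microscopy ratio of nuclear to perinuclear-ring GFP-p65 signal, scaled to the plate median; gene score is the average of two replicate robust z-scores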
Direction: p65 translocation robust z-score: higher = more nuclear NF-kappaB p65 after LPS than the plate median; nuclear/cytoplasmic p65 ratio: higher = more nuclear NF-kappaB p65
Rule for the call: 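Active if robust z is above 3.3 (negative regulators) or below -1.56, the Tlr4 control median (positive regulators); activity score 50 or more; control wells not called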
Meaning of the calls: active = hit (p65 shift raised or lowered); inactive = no clear change

For Plcl2 (phospholipase C-like 2), how do the results read?
nuclear/cytoplasmic p65 ratio, rep 1: 1.55; nuclear/cytoplasmic p65 ratio, rep 2: 1.29; low cell count flag: fewer than 50 cells per well; well left out of scoring

For Ltap1 (lipid transport auxiliary protein 1), what does the deposit list?
p65 translocation robust z-score: -0.6; nuclear/cytoplasmic p65 ratio, rep 1: 1.29; nuclear/cytoplasmic p65 ratio, rep 2: 1.45; low cell count flag: enough cells to score

For Or11h7 (olfactory receptor family 11 subfamily H member 7), what was measured?
p65 translocation robust z-score: 0.75; nuclear/cytoplasmic p65 ratio, rep 1: 1.61; nuclear/cytoplasmic p65 ratio, rep 2: 1.36; low cell count flag: enough cells to score

What is on record for Iap (retired record)?
p65 translocation robust z-score: -0.64; nuclear/cytoplasmic p65 ratio, rep 1: 1.48; nuclear/cytoplasmic p65 ratio, rep 2: 1.32; low cell count flag: enough cells to score

How did the screen score Atpaf1 (ATP synthase mitochondrial F1 complex assembly factor 1)?
p65 translocation robust z-score: -1.28; nuclear/cytoplasmic p65 ratio, rep 1: 1.4; nuclear/cytoplasmic p65 ratio, rep 2: 1.35; low cell count flag: enough cells to score

With Cyth3 (cytohesin 3), what was measured?
p65 translocation robust z-score: -1.44; nuclear/cytoplasmic p65 ratio, rep 1: 1.18; nuclear/cytoplasmic p65 ratio, rep 2: 1.32; low cell count flag: enough cells to score

With Klrk1 (killer cell lectin-like receptor subfamily K, member 1), what was measured?
nuclear/cytoplasmic p65 ratio, rep 1: 1.24; nuclear/cytoplasmic p65 ratio, rep 2: 1.26; low cell count flag: fewer than 50 cells per well; well left out of scoring

What is on record for Adat2 (adenosine deaminase, tRNA-specific 2)?
p65 translocation robust z-score: 1.19; nuclear/cytoplasmic p65 ratio, rep 1: 1.72; nuclear/cytoplasmic p65 ratio, rep 2: 2.12; low cell count flag: enough cells to score

For Fgd3 (FYVE, RhoGEF and PH domain containing 3), how do the results read?
p65 translocation robust z-score: -0.95; nuclear/cytoplasmic p65 ratio, rep 1: 1.33; nuclear/cytoplasmic p65 ratio, rep 2: 1.45; low cell count flag: enough cells to score

What is on record for Iscu (iron-sulfur cluster assembly enzyme)?
nuclear/cytoplasmic p65 ratio, rep 1: 1.45; nuclear/cytoplasmic p65 ratio, rep 2: 1.43; low cell count flag: fewer than 50 cells per well; well left out of scoring

What is on record for Dusp11?
p65 translocation robust z-score: -0.58; nuclear/cytoplasmic p65 ratio, rep 1: 1.4; nuclear/cytoplasmic p65 ratio, rep 2: 1.3; low cell count flag: enough cells to score

What did the screen give for Tigar (Trp53 induced glycolysis regulatory phosphatase)?
p65 translocation robust z-score: -2.37 (active); nuclear/cytoplasmic p65 ratio, rep 1: 1.15; nuclear/cytoplasmic p65 ratio, rep 2: 1.17; low cell count flag: enough cells to score
